Results deposited as PubChem BioAssay AID504786 (Drosophila RNAi Screening Center, 2011)
Test: 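Knock-downs reducing HIF reporter induction by the iron chelator DFO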 (primary screen). Cell system: Drosophila S2 cells with a stable HIF luciferase reporter. Reagents: long dsRNA against Drosophila genes, about 0.2 µg dsRNA per well of a 384-well plate. Time to read-out: three days of knock-down, then 20 h of DFO before reading. Conditions: desferrioxamine (DFO) at 100 µM, an iron chelator that mimics hypoxia, for 20 h. Read-out: 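HIF reporter luminescence in cells given 100 µM DFO for 20 h, using the mouse ldh-a hypoxia-response element, scored as per-plate z-scores; higher means greater loss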. Reading the numbers: z-score: higher = stronger loss of HIF reporter signal.
In all, the deposit lists about 21,000 reagents; this is an unselected part of those that have a named target and a result. 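Primary screen; positive scores mean lost reporter signal, so the sign may be inverted from the usual convention.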 A plus sign joins genes that one reagent is predicted to hit.

gene	amplicon	z-score, replicate 1	z-score, replicate 2
CG42369	DRSC03244	-0.2	0.1
CG14440	DRSC17933	0.3	0.1
Edg78E (Ecdysone-dependent gene 78E)	DRSC11863	-0.3	-0.7
l(2)k09913 (lethal (2) k09913)	DRSC04699	-0.1	-0.5
CtsF (Cathepsin F)	DRSC12056	-0.3	-0.1
CtsF (Cathepsin F)	DRSC12195	-0.4	-0.3
CtsF (Cathepsin F)	DRSC12196	1.3	0.2
CG11828	DRSC14394	-0.1	0.1
Coa7 (Cytochrome c oxidase assembly factor 7)	DRSC20967	0.9	0.3
Nox (NADPH oxidase)	DRSC06596	-0.3	-0.5
Nox (NADPH oxidase)	DRSC06857	-0.2	-1.1
CG13978	DRSC14720	-0.4	-0.5
CG5011	DRSC00039	-0.6	-0.5
CG5011	DRSC00674	-0.2	0.1
spz (spatzle)	DRSC17065	-0.3	0
CG8206	DRSC20093	-0.2	-0.2
Ku80	DRSC02699	-0.3	-0.2
ttv (tout-velu)	DRSC07709	-0.3	-0.5
CG9555	DRSC03264	-0.1	0.3
CG15646	DRSC19682	-0.4	-0.3
CG42843 (retired record)	DRSC01118	-0.2	0
CG42843 (retired record)	DRSC02231	-0.3	-0.5
CG42843 (retired record)	DRSC02233	-0.1	-0.2
CG17612	DRSC00505	-0.2	-0.1
sturkopf	DRSC08637	-0.3	-0.4
mthl15 (methuselah-like 15)	DRSC01120	-0.2	-0.4
CG8441	DRSC07180	-0.2	-0.1
CG13323	DRSC06360	-0.4	0
atms (antimeros)	DRSC12310	3.8	2.4
Uba5 (Ubiquitin-like activating enzyme 5)	DRSC19775	-0.4	-0.6
THADA	DRSC19675	-0.4	-0.5
CG9018	DRSC08618	-0.4	-0.9
CG3288	DRSC11745	-0.3	-0.3
CG8136	DRSC16385	-0.3	-0.8
tst (twister)	DRSC14212	-0.2	0
CG12224	DRSC14480	-0.1	0
Gr59f (Gustatory receptor 59f)	DRSC04499	-0.2	0.8
CG5577	DRSC10519	-0.2	-0.5
CG6006	DRSC13137	-0.3	-0.4
CG6006	DRSC15946	-0.3	-0.5
CG15296	DRSC17983	-0.2	-0.6
asRNA:CR42743 + CG34162	DRSC01190	0.2	0.1
Vajk3	DRSC01883	-0.4	0
Hasp (Hig-anchoring scaffold protein)	DRSC02022	-0.4	-0.5
CG34375	DRSC14684	-0.2	-0.3
CG34375	DRSC14685	-0.4	-0.4
fs(1)N (female sterile (1) Nasrat)	DRSC18578	0.3	1.2
ergic53	DRSC11389	-0.3	0.7
CG12934	DRSC06247	-0.2	-0.4
CG13075	DRSC09958	-0.4	-0.2
klu (klumpfuss)	DRSC11357	-0.5	-0.4
TfIIFalpha (Transcription factor IIFalpha)	DRSC12608	-0.1	0.1
mor (moira)	DRSC15378	5.3	5.2
E23 (Early gene at 23)	DRSC00425	2.9	4
E23 (Early gene at 23)	DRSC00593	-0.1	0
CG30385	DRSC06031	-0.3	-0.2

No new results follow: entries from further up.
gene	amplicon	z-score, replicate 1	z-score, replicate 2
CG9555	DRSC03264	-0.1	0.3
CG15646	DRSC19682	-0.4	-0.3
CG42843 (retired record)	DRSC01118	-0.2	0
CG42843 (retired record)	DRSC02231	-0.3	-0.5
CG42843 (retired record)	DRSC02233	-0.1	-0.2
